Patent US8003324B2, “Modulation of sodium channels by nicotinamide adenine dinucleotide” (U.S. Department of Veterans Affairs, priority 2007, dated 2011)
Entries after “also recorded” stand apart in the source; their conditions may differ. At least one structure is not confirmed: it was looked up by name or label, or the drawing left a doubt.

Amino acid sequences for entries named in this document (tags omitted).
UniProt Q14524, whole entry: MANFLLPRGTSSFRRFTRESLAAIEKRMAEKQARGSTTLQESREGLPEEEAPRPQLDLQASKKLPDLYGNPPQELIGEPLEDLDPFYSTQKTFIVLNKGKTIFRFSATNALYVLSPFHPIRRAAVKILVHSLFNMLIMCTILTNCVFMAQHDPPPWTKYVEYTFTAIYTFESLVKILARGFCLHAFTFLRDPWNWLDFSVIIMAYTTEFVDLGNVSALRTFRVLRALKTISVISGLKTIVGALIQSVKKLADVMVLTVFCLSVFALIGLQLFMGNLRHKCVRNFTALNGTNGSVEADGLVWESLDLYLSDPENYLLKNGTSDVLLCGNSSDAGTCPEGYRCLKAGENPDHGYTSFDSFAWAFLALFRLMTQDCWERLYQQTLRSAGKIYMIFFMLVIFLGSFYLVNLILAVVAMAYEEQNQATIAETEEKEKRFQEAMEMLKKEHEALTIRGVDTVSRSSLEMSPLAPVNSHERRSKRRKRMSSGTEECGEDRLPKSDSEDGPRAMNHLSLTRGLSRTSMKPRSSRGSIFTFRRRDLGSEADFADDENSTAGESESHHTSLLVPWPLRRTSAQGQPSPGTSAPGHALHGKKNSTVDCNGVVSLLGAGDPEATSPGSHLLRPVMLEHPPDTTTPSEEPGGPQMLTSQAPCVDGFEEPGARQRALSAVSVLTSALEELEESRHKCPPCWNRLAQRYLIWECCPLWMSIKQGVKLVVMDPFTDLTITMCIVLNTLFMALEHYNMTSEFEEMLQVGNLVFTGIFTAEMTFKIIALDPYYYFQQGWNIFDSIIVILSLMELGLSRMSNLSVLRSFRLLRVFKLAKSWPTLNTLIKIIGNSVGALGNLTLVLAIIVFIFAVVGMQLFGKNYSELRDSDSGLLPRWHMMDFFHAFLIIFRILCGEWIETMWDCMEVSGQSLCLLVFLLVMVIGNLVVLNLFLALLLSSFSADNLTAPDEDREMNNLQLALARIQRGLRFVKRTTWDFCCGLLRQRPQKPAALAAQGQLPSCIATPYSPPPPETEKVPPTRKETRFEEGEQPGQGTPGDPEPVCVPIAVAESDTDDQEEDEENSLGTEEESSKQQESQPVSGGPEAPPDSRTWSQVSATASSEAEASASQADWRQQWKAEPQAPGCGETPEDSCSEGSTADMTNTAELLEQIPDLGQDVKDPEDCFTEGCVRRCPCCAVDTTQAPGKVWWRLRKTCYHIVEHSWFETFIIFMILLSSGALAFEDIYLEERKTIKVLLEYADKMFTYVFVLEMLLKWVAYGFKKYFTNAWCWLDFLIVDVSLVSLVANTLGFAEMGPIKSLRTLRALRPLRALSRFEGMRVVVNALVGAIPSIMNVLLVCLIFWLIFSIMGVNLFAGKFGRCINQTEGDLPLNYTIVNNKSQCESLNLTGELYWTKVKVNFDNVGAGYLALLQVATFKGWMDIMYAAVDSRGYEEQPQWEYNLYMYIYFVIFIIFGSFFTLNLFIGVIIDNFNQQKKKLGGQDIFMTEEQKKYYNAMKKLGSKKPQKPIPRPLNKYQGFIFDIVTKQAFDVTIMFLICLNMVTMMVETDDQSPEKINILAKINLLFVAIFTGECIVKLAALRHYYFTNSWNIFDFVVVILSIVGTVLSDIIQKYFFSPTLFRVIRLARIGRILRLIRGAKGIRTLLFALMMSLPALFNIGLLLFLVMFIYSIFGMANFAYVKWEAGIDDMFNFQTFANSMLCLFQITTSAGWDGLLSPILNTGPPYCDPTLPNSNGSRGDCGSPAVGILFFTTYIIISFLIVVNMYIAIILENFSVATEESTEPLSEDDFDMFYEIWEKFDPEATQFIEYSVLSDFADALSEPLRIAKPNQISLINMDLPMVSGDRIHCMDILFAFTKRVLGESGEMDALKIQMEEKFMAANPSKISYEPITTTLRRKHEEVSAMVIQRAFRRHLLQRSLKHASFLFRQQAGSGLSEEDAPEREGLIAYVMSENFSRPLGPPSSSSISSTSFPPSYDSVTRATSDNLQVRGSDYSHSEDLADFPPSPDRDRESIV

Columns and labels:
[1] = target: T1, human cardiac Na^+ channel (SCN5A) (Homo sapiens, UniProt Q14524); experiment: Whole-cell patch clamp Na+ current in HEK cells stably expressing SCN5A; type: cell-based
T1 construct: expressed in transfected cells
Procedure: HEK cells stably transfected with two different Na^+ channel constructs were used, SCN5A-IRES-GFP and SCN5A-GFP fusion constructs. Cloning and establishment of the cell lines has been delineated previously (11). The HEK 293 cell line stably expressing a SCN5A-IRES-GFP construct was maintained by antibiotic selection using Geneticin (G-8168, Sigma-Aldrich) at a concentration of 0.2 mg/mL was used for patch clamp study. GFP was used as a marker to identify cells expressing the cardiac Na^+ channel. The cells were cultured in 6 well plates with Dulbecco's Modified Eagle's medium (DMEM), 10% fetal bovine serum and 1% pen-strep. Cells were stored in a 5% CO2 incubator at 37° C. for 1-2 days. GPD1-L (the A280V mutant or wild-type) was transiently co-transfected into HEK 293 cells. GPD1-L vectors have been described in London et al.
The effects of external NADH or NAD^+ on sodium current were determined by incubating HEK 293 cells overnight (12-14 h) with NADH/NAD^+ (300 μM) added to the media. The effects of internal NADH or NAD^+ (100 μM) on sodium current were tested by adding the compounds to the pipette solution.
Cells expressing GFP were tested with the whole cell patch-clamp technique in voltage-clamp mode to measure Na^+ current levels. For patch-clamping, HEK cells were plated onto plastic coverslips 2-3 h before the recordings. Glass pipettes were pulled on a Sutter Model P-97 horizontal puller to a resistance of 1-2 MΩ. The glass pipettes were filled with a pipette solution containing (in mmol/L): CsCl 80, Cesium Aspartate 80, EGTA 11, MgCl2 1, CaCl2 1, HEPES 10, Na2ATP 5 and pH 7.4 with CsOH. The bath solution consisted of (in mmol/L): NaCl 130, CsCl 5, CaCl2 2, MgCl2 1.2, HEPES 10 and Glucose 5 (titrated to pH 7.4 with CsOH). Once a seal was established, a small amount of suction was applied to obtain the whole cell configuration. A stepped voltage protocol from −100 to +60 mV from a holding potential of −100 mV was applied to establish the presence of voltage-gated Na^+ channels. Currents obtained during steps to −10 mV were used for comparison in determining the relative reduction in sodium current. Cells were tested at 25° C. In all recordings, 80% of the series resistance was compensated, yielding a maximum voltage error of ˜1 mV. Data were sampled at 10 kHz and later filtered at 5 kHz for analysis. Currents were recorded and analyzed with an Axopatch 200B amplifier, Axon Digidata 1230A A/D converter and pClamp software (Molecular Devices Corporation, Sunnyvale, Calif.).
Using HEK 293 cells stably expressing the SCN5A-IRES-GFP construct, we measured the effect of treatments on the Na^+ current. Cells were cultured in 6-well plates in a […] incubator at 37° C. WT or MT GPD1-L was transiently transfected into HEK 293 cells as described previously in London et al. Other treatments included extracellular NADH or NAD^+ (300 μM) for […] or NADH or NAD^+ (100 μM) in the patch pipette solution. Apocynin (100 μM, Sigma) was added to cells 4-6 h prior to treatment with NADH and continuing for the entire extracellular NADH incubation. Na^+ current levels were measured from GFP-expressing cells using the whole-cell patch clamp technique in voltage-clamp mode at room temperature. HEK cells were dissociated by trypsin-EDTA, and replated onto plastic coverslips 2-3 h before the recordings. Glass pipettes were pulled on a Sutter Model P-97 horizontal puller to a resistance of 1-2 MΩ. […]

[2] = system: human SCN5A fused at the C-terminus to GFP (SCN5A-GFP fusion); experiment: Na+ channel tracking (confocal microscopy of SCN5A-GFP fusion in HEK cells); type: cell-based; details: 300 μM overnight, versus control SCN5A-GFP cells
Procedure: An SCN5A constructed fused at the C-Terminus to GFP (SCN5A-GFP fusion) was stably transfected in HEK cells and grown on glass bottom 14 mm microwell dishes (MatTek Corporation, Ashland, Mass., USA). A Nikon (Melville, N.Y.) Diaphot 200 inverted microscope with a fluorescent lamp was used to identify cells expressing GFP. Cells expressing GFP were transiently co-transfected with MT GPD1-L or incubated overnight with NADH. Fixation was performed by washing the coverslip three times with DPBS (Dulbecco's Phosphate Buffered Saline 1× of GIBCO) and exposing them to 4% paraformaldehyde in PBS at pH 7.4. […] GFP fluorescence was observed using a 507 nm narrow bandpass filter and a 60× oil 1.4 NA objective. Quantification was done using ImageJ software.
For these experiments, a construct of human SCN5A fused at the C-terminus to GFP (SCN5A-GFP fusion) was stably transfected in HEK cells and grown on the glass bottom of 14-mm microwell dishes (MatTek Corporation, Ashland, Mass., USA). […] For imaging Na^+ channels, GFP was excited at 488 nm with an argon ion 30 mW water-cooled laser, and GFP fluorescence was observed using a 507 nm narrow bandpass filter and a 60× oil 1.4 NA objective. Quantification was done using ImageJ software.

Structure (SMILES): NC(=O)C1=CN([C@@H]2O[C@H](COP(=O)(O)OP(=O)(O)OC[C@H]3O[C@@H](n4cnc5c(N)ncnc54)[C@H](O)[C@@H]3O)[C@@H](O)[C@H]2O)C=CC1 [NADH, nicotinamide adenine dinucleotide]
- effect on Na+ current density (in words) ([1]; 100 μM in internal (pipette) solution, versus SCN5A): significantly lower
- macroscopic inactivation (time constants τ of current decay) ([1]; 300 μM extracellular NADH, versus SCN5A): increased; also recorded: change in macroscopic inactivation
- effect on peak Na+ current (in words) ([1]; 300 μM extracellular, overnight incubation, versus SCN5A cells): reduced inward Na^+ current; also recorded: decreased peak Na^+ current; also recorded: reduction in peak current
- shift of activation curve ([1]; WT SCN5A cells, versus SCN5A cell): shift more positive
- shift of inactivation curve ([1]; versus SCN5A cell): more negative
- effect on Na+ channel protein (GFP fluorescence, in words) [2]: decreased Na^+ channel protein; also recorded: decreased significantly; also recorded: decreases Na^+ channel protein membrane expression
